Measured values taken from patent US8178077B2, “Drug development target protein and target gene, and method of screening” (Reverse Proteomics Research Institute Co., Ltd., priority 2004, dated 2012).
At least one compound was matched to its structure with a doubt left.

Biological target: T1, FLJ39196 clone-derived protein (human neurocalcin δ) (Homo sapiens, UniProt P61601)
T1 construct: A human full-length cDNA clone was expressed as a protein with an N-terminal His tag; His tag (N); made in house; host or cells: Escherichia coli BL21star(DE3)pLysS (pDEST17 Gateway expression plasmid)
Assay: SEC/MS interaction analysis (size exclusion spin column and mass analysis) with FLJ39196 clone-derived protein
Assay type: binding
Excerpt: To analyze the interactions between commonly used drugs and proteins expressed from human full-length cDNA clones while keeping both the proteins and the compounds in non-modified, non-immobilized state, size exclusion chromatography (SEC) and mass analysis were used in combination (FIGS. 1, 2). The specific procedures are shown below.
The compound-protein mixture prepared in step 1 was subjected to chromatography using an SEC column, the compound and the protein were separated by SEC, and the compound that interacted with the bound compound or protein contained in the protein fraction was analyzed using a mass analyzer.
Protein concentrations were measured using BCA Protein Assay (PIERCE), in consideration of the purity calculated by SDS-PAGE.
Mass analysis was performed using LCQ DECA XP (Thermoelectron) or Q-TOFmicro (Micromass), equipped with an ESI probe. The LC pump used was Agilent 1100 (Yokogawa Analytical Systems), and the autosampler used was HTC-PAL (CTC Analytics) equipped with a cooling stacker.
In the SEC method using 384-well spin columns, Unifilter 100 (Whatman), packed with 10 μL (dry volume) of Bio-Gel P6 (BIO-RAD) and swollen with milliQ water, was used as the SEC column. 13.3 μL of a protein-free reference standard or a 25 μM protein standard and 0.7 μL of a multiplied liquid comprising 25 μM of each pharmaceutical compound (5% DMSO aqueous solution) were mixed; 9 μL of this mixture was aliquoted into the SEC spin columns. The SEC spin column was mounted on an acetonitrile-aliquoted 384-well U-bottom plate and centrifuged; the SEC spin column filtrate, which is a protein fraction, was retrieved in 50% acetonitrile. The protein precipitate produced by the acetonitrile was removed via centrifugation and filtration for deproteinization; the resulting filtrate was concentrated by centrifugation and re-dissolved in 10 μL of 50% methanol to obtain a mass analysis sample. The mobile phase supplied to the mass analyzer was 0.1% formic acid/50% methanol solution in the positive ion mode, and 0.1% ammonia/50% methanol solution in the negative ion mode; these mobile phases were used at a flow rate of 40 μL/min. 2-μL of mass analysis samples were injected using an autosampler at 2-minute intervals; the mass spectral intensity of the compound was measured to obtain the spectral intensity of the pharmaceutical compound contained in the SEC spin column filtrate (protein fraction eluted from SEC).

[1] = protein 0 μM (protein-free reference), compound 1 μM
[2] = protein 0 μM (protein-free reference), compound 10 μM
[3] = protein 0 μM (protein-free reference), compound 100 μM
[4] = protein 0 μM (protein-free reference), compound 250 μM
[5] = protein 23.75 μM, compound 1 μM
[6] = protein 23.75 μM, compound 10 μM
[7] = protein 23.75 μM, compound 100 μM
[8] = protein 23.75 μM, compound 250 μM
[9] = protein 47.5 μM, compound 10 μM
[10] = protein 47.5 μM, compound 100 μM
[11] = protein 47.5 μM, compound 250 μM

Structure (SMILES)	spectral intensity of the compound in the SEC spin column filtrate (protein fraction) [1]	spectral intensity of the compound in the SEC spin column filtrate (protein fraction) [2]	spectral intensity of the compound in the SEC spin column filtrate (protein fraction) [3]	spectral intensity of the compound in the SEC spin column filtrate (protein fraction) [4]	spectral intensity of the compound in the SEC spin column filtrate (protein fraction) [5]	spectral intensity of the compound in the SEC spin column filtrate (protein fraction) [6]	spectral intensity of the compound in the SEC spin column filtrate (protein fraction) [7]	spectral intensity of the compound in the SEC spin column filtrate (protein fraction) [8]	spectral intensity of the compound in the SEC spin column filtrate (protein fraction) (protein 47.5 μM, compound 1 μM)	spectral intensity of the compound in the SEC spin column filtrate (protein fraction) [9]	spectral intensity of the compound in the SEC spin column filtrate (protein fraction) [10]	spectral intensity of the compound in the SEC spin column filtrate (protein fraction) [11]
CN1CCN(C2=Nc3ccccc3Oc3ccc(Cl)cc32)CC1 [Loxapine]	3432353	21044859	169361258	460296582	4528499	11931004	251879811	825422861	4199361	15635610	339486695	830945491
O=c1[nH]c2ccccc2n1C1CCN(CCCC(c2ccc(F)cc2)c2ccc(F)cc2)CC1 [pimozide]	4813337	4354460	5504067	9203835	6161857	27706749	456093959	1174368945	8507799	142633352	1412301047	2935095895
